From PMC11667809

Protein sequences, listed by entry. Tags and fused reporters are not part of them.
UniProt P25440: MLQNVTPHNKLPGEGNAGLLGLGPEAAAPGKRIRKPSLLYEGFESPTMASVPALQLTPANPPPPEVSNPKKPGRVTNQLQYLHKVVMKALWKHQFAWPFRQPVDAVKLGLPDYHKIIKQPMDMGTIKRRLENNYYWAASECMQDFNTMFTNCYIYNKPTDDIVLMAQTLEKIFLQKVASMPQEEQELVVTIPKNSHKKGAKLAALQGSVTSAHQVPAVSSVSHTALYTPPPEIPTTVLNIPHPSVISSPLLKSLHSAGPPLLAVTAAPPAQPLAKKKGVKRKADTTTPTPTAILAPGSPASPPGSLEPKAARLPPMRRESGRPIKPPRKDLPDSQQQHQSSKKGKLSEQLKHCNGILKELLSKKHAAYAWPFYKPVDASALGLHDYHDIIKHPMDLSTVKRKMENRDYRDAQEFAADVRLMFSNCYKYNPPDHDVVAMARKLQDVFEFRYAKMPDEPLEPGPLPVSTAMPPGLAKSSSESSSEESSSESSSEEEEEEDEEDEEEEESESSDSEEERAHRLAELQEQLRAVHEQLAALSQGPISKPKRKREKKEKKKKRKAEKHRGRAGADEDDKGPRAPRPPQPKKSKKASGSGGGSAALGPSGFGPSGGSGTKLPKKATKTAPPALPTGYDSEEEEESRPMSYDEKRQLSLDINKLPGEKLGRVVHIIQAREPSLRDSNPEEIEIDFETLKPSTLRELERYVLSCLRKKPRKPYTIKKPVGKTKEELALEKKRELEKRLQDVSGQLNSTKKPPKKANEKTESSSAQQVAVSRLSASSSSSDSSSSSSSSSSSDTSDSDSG
UniProt P98177: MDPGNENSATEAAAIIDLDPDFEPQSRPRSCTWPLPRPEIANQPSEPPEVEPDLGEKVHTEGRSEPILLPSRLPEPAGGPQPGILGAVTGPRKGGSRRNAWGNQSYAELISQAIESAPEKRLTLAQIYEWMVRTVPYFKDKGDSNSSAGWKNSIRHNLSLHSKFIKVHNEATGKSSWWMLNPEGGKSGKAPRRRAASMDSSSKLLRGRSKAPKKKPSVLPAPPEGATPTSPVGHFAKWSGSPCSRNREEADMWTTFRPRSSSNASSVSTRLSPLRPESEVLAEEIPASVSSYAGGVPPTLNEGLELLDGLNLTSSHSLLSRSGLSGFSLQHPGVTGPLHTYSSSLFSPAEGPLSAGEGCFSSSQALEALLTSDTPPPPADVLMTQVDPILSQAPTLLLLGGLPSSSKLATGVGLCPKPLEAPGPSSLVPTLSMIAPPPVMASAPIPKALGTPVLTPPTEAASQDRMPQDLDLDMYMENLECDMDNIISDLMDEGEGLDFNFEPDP

Target: Bromodomain-containing protein 2 (human) (UniProt P25440)
Assay: affinity purification with mass spectrometry; COIP-MS of BRD2; hits overlapped with predicted transcription factors of FLIP; cells and conditions not told

For “FOXO4 wild-type (from UniProt P98177 1-505)”, the binding was “binds”.

No constants are given. Whether binding was seen depends on the method and setting. In cells and extracts the contact can be indirect. A yes stands for co-enrichment or nearness to the bait. Other partners may have been found.
